# In publication PMC4931556:
# By UniProt entry, the sequences of proteins in these tests, tags left out.
# UniProt O00429: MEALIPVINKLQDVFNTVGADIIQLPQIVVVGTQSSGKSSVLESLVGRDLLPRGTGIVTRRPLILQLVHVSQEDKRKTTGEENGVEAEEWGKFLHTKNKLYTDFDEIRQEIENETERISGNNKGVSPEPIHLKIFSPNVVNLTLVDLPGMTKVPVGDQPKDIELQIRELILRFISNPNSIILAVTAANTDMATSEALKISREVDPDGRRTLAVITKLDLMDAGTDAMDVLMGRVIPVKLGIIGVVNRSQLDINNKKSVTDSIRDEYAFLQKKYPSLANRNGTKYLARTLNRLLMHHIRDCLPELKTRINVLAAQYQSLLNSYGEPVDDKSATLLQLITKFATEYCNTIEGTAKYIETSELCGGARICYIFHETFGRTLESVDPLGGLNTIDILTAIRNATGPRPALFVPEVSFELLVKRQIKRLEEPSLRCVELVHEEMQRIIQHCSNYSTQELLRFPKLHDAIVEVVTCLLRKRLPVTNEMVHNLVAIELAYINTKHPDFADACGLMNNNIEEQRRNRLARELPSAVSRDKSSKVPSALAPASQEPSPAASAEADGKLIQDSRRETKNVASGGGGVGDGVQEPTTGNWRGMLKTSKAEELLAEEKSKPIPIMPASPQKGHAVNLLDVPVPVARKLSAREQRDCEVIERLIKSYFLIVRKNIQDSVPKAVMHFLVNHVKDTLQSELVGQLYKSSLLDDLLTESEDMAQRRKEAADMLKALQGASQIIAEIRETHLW
# No constants are given. Whether binding was seen depends on the method and setting. Binding seen in cells or lysates may run through a third protein. Some entries that bind do so weakly or less than the wild type. Where a sequence is shown, tags or fusion partners need not be part of it.
# Experiments:
# GFP-SEPT6 (human) [1] = biological target: T1, GFP-SEPT6 (human) (UniProt Q14141); assay: co-IP; GFP-Trap beads on lysates of uninfected HeLa cells stably expressing GFP-SEPT6 (GFP cells as control); 1 h at 4°C, washed 3x; immunoblot
# T1 sequence: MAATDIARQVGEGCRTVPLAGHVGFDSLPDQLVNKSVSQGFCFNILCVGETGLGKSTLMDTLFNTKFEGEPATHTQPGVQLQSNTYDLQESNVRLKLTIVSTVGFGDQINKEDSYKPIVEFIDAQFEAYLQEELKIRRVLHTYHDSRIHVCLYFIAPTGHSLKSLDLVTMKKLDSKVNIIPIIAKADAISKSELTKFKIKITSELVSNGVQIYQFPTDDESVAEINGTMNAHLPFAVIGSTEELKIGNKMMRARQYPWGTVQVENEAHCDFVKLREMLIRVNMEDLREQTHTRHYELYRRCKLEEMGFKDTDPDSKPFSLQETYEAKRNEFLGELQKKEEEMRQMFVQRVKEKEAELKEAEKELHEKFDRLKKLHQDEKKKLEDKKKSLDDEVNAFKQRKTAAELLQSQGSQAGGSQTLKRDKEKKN
# GFP-SEPT6 (human) [2] = biological target: T1, GFP-SEPT6 (human); assay: co-IP; GFP-Trap agarose on lysates of HeLa cells stably expressing SEPT6-GFP, infected with S. flexneri AfaI (MOI 10) for 4 h; lysis buffer 10 mM Tris/Cl pH 7.5, 150 mM NaCl, 0.5 mM EDTA, 0.5% NP-40; 1 h at room temperature; immunoblot
binding (GFP-SEPT6 (human) [1]),binding (GFP-SEPT6 (human) [2]),Substance
binds,–,dynamin-related protein 1 (Drp1) (from UniProt O00429 1-736)
–,binds,p62 (from UniProt Q13501 1-440)
